These are yes or no findings as the source states them, for the method shown. In cells and extracts the contact can be indirect. Here binding means that the protein was enriched with, or labelled near, the bait; the list need not be complete. No binding means not detected with the bait. Tags and fused reporters may be left off the sequences shown.
B1: Actin-related protein 4 (protein, UniProt Q84M92 1-441)
chain: MYGGDEVSAIVVDLGSHTCKAGYAGEDAPKAVFPSVIGAVDGVEAMDVDVDSTKTNSNSEDSKTESEKEKSKRKLYVGSQAMSYRRDHMEVLSPIKDGIVSDWDLVDNIWEHAFKSCLMIDPTEHPMLLAEPPLNTQQQREKAAELMFEKYKVPALFMAKNPVLTSFATGRATSLVVDCGGGSTTISPVHDGYVLQKAVVSSPLGGEFLTDCLLKSLESKGIKIRPRYSFKRKEVRAGEFQVEDVDIPDTTESYKLFCQRMIVGDIKDSICRVPDTPYDDKSYSNIPTTSYELPDGQTLEIGADRFKVPDVMFNPSIVQTIPGMEKYAEMIPSVRGLPHMVMESINKCDVDIRRELYSSILLAGGTSSMQQLKERLEKDLIEESPHSARVKVLASGNTTERRFSVWIGGSILASLGSFQQMWFSKSEYEEHGASYIQRKCP
B2: Enhancer of polycomb-like protein 1 (EPL1A) (protein, UniProt Q9FX82 1-439)
chain: MSRLSFRPRPLDIHKKLPILKSFKDFEDEDNPSSITRNSQLLRISAVEVVDNEVQPPVPSKKLISEIPTPQYLVVDTYERDYSRTFNQPASYLRARGARAELGEFVEYDLDNDDDDWLYEYNKETMILSPEMLEIVIFKLEVLDHKARERAGVITPTLGLPVPVLLQPDAAGEALKYLSIKYGVFHAIYSYWKNKREIWQKPILRRLQPPPPVNDTNPYNVFRPREKAHRLHARRMQQRENNAQSFEKLRQVRRNLDQAKTILEALIKREEKKRDFMASEVSLQRIQLKYKNETELLEDSLALAGFPLSTAYRFGSSEDEFMDSDDPTTTQTCTRPSFTPHRRFTDSNLARAQAGSIKQEARRLGWLHKLNPNEPVMLFTKALVPDKLAAAGIIPPSDARSGRARFQGRMGRGGRIVFDRWNPLNQAHINCGNTLYIAP
B3: Enhancer of polycomb-like protein 1 (EPL1B) (protein, UniProt Q8GYQ9 1-453)
chain: MSRLSFRPRPLDIHKKLPILKSFKDFEDDETPTSTTRNSQLLRIASVEVDNEVAPVPSKKPASEIPTPQFVIVDTYERDYSPTFGQPASYLRARGARSELGEFVEYDLDNEDEDWLYEFDKDKKELPPEKLEIIIFKLEVLDHKTRERAGVITPTLGSPVPVLLQFDAASDVLQVLSINYGTFQAIFNYWKEKRKRWQKPILRRLQPPPPVNDTNPYNVFRPREKVHRLHTRRMQRRENNVQSFEKLRQVRRNLGQAQSILEALIKREEKKRDVMDSEVSLQRIQLQYRHETELLEDSLAMPGFQPTTTSYKFGSSDDELMDSDDHTSTRVRTRPAVIPSSRFTNLNLNASHPGGIKQEVRRRQSQHGWLHRLDPNEPVMLFTKPLVPDKLAAAGIVPPTPDSSPGQPPSRFQGRIGRGGRIIFDRWNPLMQSHINCGNSYYIAPNHRSTNFD
B4: SWC4 (myb-like transcription factor family protein) (protein, UniProt Q8VZL6 1-441)
chain: MGGTDAKDILGLPKTPLSLTQEKKSRPQKESHRKPDGISREVYALTGGVAPLMPSIDLKRRPPADEKVAWKWLSFTNSARKDDLQLYHWVRVVNDVPPTGDYSFAKYNKSVDILKYTDEEYENHLTDSVWTKEETDQLFEFCQNFDLRFVVIADRFPVSRTVEELKDRYYSVNRALLRARAQSPADVANHPLMKEPYDITRDRERKRALSMVLSQSRHQEKKDAEILAEAKRITEMRLAARRAEEPDVSANENAGLDKADGVVPGRSVSPTSNSQLPATAVAPSTLTMADYASTLASLRMLHVYLRTYGLEQMVQAASSAVGLRTIKRVEQTLQDLGVNLKPKVPTKTVCDEHLELRKEILTLLNLQKQLQYKESEGSSHREGSYAAMPDTPKDRVFAPDPFSFGAERPIKKEQKRKGPGRQADTPSPAHKRPRKLKASDL
B5: HAM1 (Histone acetyltransferase) (enzyme, UniProt Q9FLF7 1-445)
chain: MGSSADTETAMIIATPASNHNNPATNGGDANQNHTSGAILALTNSESDASKKRRMGVLPLEVGTRVMCQWRDGKYHPVKVIERRKNYNGGHNDYEYYVHYTEFNRRLDEWIKLEQLDLDSVECALDEKVEDKVTSLKMTRHQKRKIDETHVEGHEELDAASLREHEEFTKVKNIATIELGKYEIETWYFSPFPPEYNDCVKLFFCEFCLSFMKRKEQLQRHMRKCDLKHPPGDEIYRSSTLSMFEVDGKKNKVYAQNLCYLAKLFLDHKTLYYDVDLFLFYILCECDDRGCHMVGYFSKEKHSEEAYNLACILTLPPYQRKGYGKFLIAFSYELSKKEGKVGTPERPLSDLGLVSYRGYWTRILLDILKKHKGNISIKELSDMTAIKAEDILSTLQSLELIQYRKGQHVICADPKVLDRHLKAAGRGGLDVDVSKMIWTPYKEQS
B6: YAF9A (Transcription initiation factor TFIID subunit 14b) (protein, UniProt Q9FH40 1-268)
chain: MTNSSSSKKQAQDQPETSEPTLKSLKTKMTKSDEKQKKLKDIEISVPIVYGNVAFWLGKKASEYQSHKWAVYVRGATNEDISVVVKKVVFQLHSSFNSPTRVIEEPPFEVSESGWGEFEIAMTLHFHSDVCDKPLSLYHHLKLYPEDESGPLTMKKPVVVESYDEIVFPDPSESFLARVQNHPALTFPRLPSGYNLPAPMQVEDTGKKKRGDTKDHSLGQWFMSFSEADELLQLAAARQQVQAHIAKLRRQISLLEGQNQTVKTGSDL
B7: SHORT LIFE (protein, UniProt Q9FEN9 1-228)
chain: MPKQKAPRKQLKSYKLKHINKSIQEGDAVLMRSSEPGKPSYVARVEAIETDARGSHAKVRVRWYYRPEESIGGRRQFHGAKEVFLSDHFDFQSADTIEGKCKVHSFSSYTKLDSVGNDDFFCRFEYNSTTGAFDPDRVTVFCKCEMPYNPDDLMVQCEECSEWFHPSCIGTTIEEAKKPDNFYCEECSPQQQNLHNSNSTSNNRDAKVNGKRSLEVTKSKNKHTKRPG

molecular target: 4xmyc-ING2 (INHIBITOR OF GROWTH 2) (Arabidopsis thaliana); assay: affinity purification with mass spectrometry; 4xmyc-ING2 captured with anti-myc microbeads (1 h, 4 °C) from extracts of 12 day-old seedlings grown under LD at 22 °C; extraction buffer 20 mM TrisHCl pH 8, 150 mM NaCl, 2.5 mM EDTA, 33 mM β-mercaptoethanol, 10% glycerol, 0.5% Triton X-100; LC-MS/MS; two biological replicates, control purification from WT

Binder | binding
B1 | binds
B2 | binds
B3 | binds
B4 | binds
B5 | binds
B6 | binds
B7 | no binding
